The source of these data is PMC11494503 (ACS Chemical Biology, 2024).

For part of these data: Some peptides are written in HELM: one residue between dots, names in brackets for other building blocks, links after the first $.

Data set [1] is described as follows: general procedure: Fmoc solid-phase peptide synthesis; 2-Chlorotrityl chloride (2-CTC) resin, first amino acid loaded in-house; HATU/DIPEA (cyclisation). The settings on record: for final HPLC purity: 220 nm; for isolated mass / isolated yield: scale 0.1 mmol.
A short description of data set [2]: general procedure: Fmoc solid-phase peptide synthesis; 2-Chlorotrityl chloride resin; HATU/DIPEA (cyclisation). The settings on record: whole synthesis, scale 0.1 mmol.
Setting [3] is: whole synthesis, scale of the general procedure 0.1 mmol.

The substance C(Spy)GRKKRRQRRRPPQ yielded a step yield in data set [1] (late stage modification step) of 45%.
Take “PEPTIDE1{C.L.L.F.C.L}$PEPTIDE1,PEPTIDE1,1:R1-6:R2$$$V2.0”: in data set [1] (setting [3]), the “final HPLC purity” value was found to be 97% Purity. In data set [1] (whole synthesis), this substance gave an isolated mass of 31 mg and an isolated yield of 45%.
On to “PEPTIDE1{C.R.L.I.I.V}$PEPTIDE1,PEPTIDE1,6:R2-1:R1$$$V2.0”, for which the “final HPLC purity” value in data set [1] (setting [3]) is listed as 94.3% purity. In data set [1] (whole synthesis), this substance showed an isolated mass of 23 mg and an isolated yield of 33%.
“PEPTIDE1{C.R.L.L.I.L}$PEPTIDE1,PEPTIDE1,6:R2-1:R1$$$V2.0”: in data set [1] (setting [3]), the “final HPLC purity” value is 93.9% purity. In data set [1] (whole synthesis), the isolated mass is listed as 21 mg and the isolated yield came to 31%.
For “PEPTIDE1{C.R.M.F.I.L}$PEPTIDE1,PEPTIDE1,6:R2-1:R1$$$V2.0”, the “final HPLC purity” value in data set [1] (setting [3]) worked out at 93% purity. In data set [1] (whole synthesis), this substance came in with an isolated mass of 6.7 mg and an isolated yield of 9%.
For “PEPTIDE1{C.R.M.Y.V.L}$PEPTIDE1,PEPTIDE1,6:R2-1:R1$$$V2.0”, in that order: 96% Purity, 15 mg and 20%.
Turning to “PEPTIDE1{C.R.R.I.I.L}$PEPTIDE1,PEPTIDE1,6:R2-1:R1$$$V2.0”, the “final HPLC purity” value in data set [1] (setting [3]) worked out at 100% purity. In data set [1] (whole synthesis), the isolated mass amounted to 8 mg and the isolated yield was 11%.
“PEPTIDE1{C.R.V.L.V.L}$PEPTIDE1,PEPTIDE1,6:R2-1:R1$$$V2.0”: in data set [1] (setting [3]), the “final HPLC purity” value is reported as 95.8% purity. In data set [1] (whole synthesis), this substance yielded an isolated mass of 20 mg and an isolated yield of 29%.
On the same counts, the results for “PEPTIDE1{C.R.Y.L.I.L}$PEPTIDE1,PEPTIDE1,6:R2-1:R1$$$V2.0” are 98% Purity, 31 mg and 41%.
For the substance “PEPTIDE1{C.R.Y.Y.V.L}$PEPTIDE1,PEPTIDE1,6:R2-1:R1$$$V2.0”, in data set [1] (setting [3]), the “final HPLC purity” value was 77.2% Purity. Moreover, in data set [1] (whole synthesis), the isolated mass worked out at 4 mg and the isolated yield came to 5%.
Turning to “PEPTIDE1{C.V.M.R.I.A}$PEPTIDE1,PEPTIDE1,6:R2-1:R1$$$V2.0”, in data set [1] (setting [3]), the “final HPLC purity” value worked out at 99.5% purity. Also, in data set [1] (whole synthesis), the isolated mass is on record as 8 mg and the isolated yield turned out to be 12%.
For the substance cyclo-C(TAT)LLFVY, the “final HPLC purity” value in data set [1] (conjugation step) was 94.7% Purity. The conjugation yield in data set [1] (conjugation step, on cyclo-CLLFVY) is 35%.
As to cyclo-C(TAT)RILIL, the “final HPLC purity” value in data set [1] (conjugation step) was found to be 95.8% Purity. The substance also displayed a conjugation yield in data set [1] (conjugation step, on cyclo-CRILIL) of 64%.
As for cyclo-C(TAT)RLLIL, the “final HPLC purity” value in data set [1] (conjugation step) is 100% Purity. For the same substance, the conjugation yield in data set [1] (conjugation step, on cyclo-CRLLIL) is on record as 71%.
For cyclo-C(TAT)RMFIL, in data set [1] (conjugation step), the “final HPLC purity” value was determined as 97.5% Purity. The substance further had a conjugation yield in data set [1] (conjugation step, on cyclo-CRMFIL) of 58%.
Regarding cyclo-C(TAT)RRIIL, the “final HPLC purity” value in data set [1] (conjugation step) amounted to 89.8% Purity. In data set [1] (conjugation step, on cyclo-CRRIIL), the conjugation yield was 62%.
Take cyclo-C(TAT)RTYIL: the “final HPLC purity” value in data set [1] (conjugation step) came to 88% Purity. Besides, the conjugation yield in data set [1] (conjugation step, on cyclo-CRTYIL) was 71%.
Consider cyclo-C(TAT)RYLIL, for which, in data set [1] (conjugation step), the “final HPLC purity” value came to 99% Purity. The conjugation yield in data set [1] (conjugation step, on cyclo-CRYLIL) is on record as 74%.
cyclo-CFLLNL: the “final HPLC purity” value in data set [1] (setting [3]) was 99.9% Purity. In data set [1] (whole synthesis), this substance gave an isolated mass of 5 mg and an isolated yield of 7%.
Take cyclo-CKVFLL: in data set [1] (setting [3]), the “final HPLC purity” value was determined as 94% Purity. In data set [1] (whole synthesis), this substance yielded an isolated mass of 21 mg and an isolated yield of 30%.
For the substance cyclo-CRIFIM, the “final HPLC purity” value in data set [1] (setting [3]) stood at 94% Purity. For the same substance, in data set [1] (whole synthesis), the isolated mass stood at 17 mg and the isolated yield is 22%.
On the same counts, the results for cyclo-CRILIL are 100% Purity, 15 mg and 21%.
Take cyclo-CRLYIV: the “final HPLC purity” value in data set [1] (setting [3]) amounted to 81.7% purity. In data set [1] (whole synthesis), this substance had an isolated mass of 7 mg and an isolated yield of 9%.
As to cyclo-CRLYVL, in data set [1] (setting [3]), the “final HPLC purity” value is reported as 97.5% Purity. Besides, in data set [1] (whole synthesis), the isolated mass came to 20 mg and the isolated yield is given as 27%.
On the same counts, the results for cyclo-CRTIVL are 72.2% purity, 3 mg and 4%.
As for cyclo-CRTYIL, in data set [2], the isolated mass stood at 12 mg. Also, the “final HPLC purity” value in data set [1] (setting [3]) is 98.9% Purity. In addition, in data set [1] (whole synthesis), the isolated yield is 16%.
cyclo-CRVYIL: the “final HPLC purity” value in data set [1] (setting [3]) is listed as 84.3% purity. In data set [1] (whole synthesis), this substance yielded an isolated mass of 10 mg and an isolated yield of 13%.
In the case of cyclo-CSVWLY, the “final HPLC purity” value in data set [1] (setting [3]) is 81% Purity. Also, in data set [1] (whole synthesis), the isolated mass is reported as 10 mg and the isolated yield was found to be 13%.
